Earlier results in patent publication US20250177384A1, “CHROMANOL COMPOUNDS FOR TREATMENT OR PROPHYLAXIS OF AGEING-ASSOCIATED DISORDERS” (Sulfateq B.V., priority 2022, published 2025).
At least one structure is not confirmed: it was looked up by name or label, or the drawing left a doubt.

Assays:
[1] = tested on: progeroid DNA repair-deficient mice; details: cited from earlier work
[2] = tested on: accelerated aging animal models; details: chronic treatment; cited from earlier work

For `CO[C@H]1C[C@@H]2CC[C@@H](C)[C@@](O)(O2)C(=O)C(=O)N2CCCC[C@H]2C(=O)O[C@H]([C@H](C)C[C@@H]2CC[C@@H](O)[C@H](OC)C2)CC(=O)[C@H](C)/C=C(\C)[C@@H](O)[C@@H](OC)C(=O)[C@H](C)C[C@H](C)/C=C/C=C/C=C/1C` [rapamycin], the lifespan [1] is given as “fails to extend lifespan” and the “endothelial dependent relaxation / vasomotor (vasodilator) function” value [2] is given as “not able to preserve vasodilator function”.
